Changes are numbered by the printed parent chain. Numbers in names are those of the source. No constants are given. Whether binding was seen depends on the method and setting. In cells and extracts the contact can be indirect. Some entries that bind do so weakly or less than the wild type. Tags and fused reporters may be left off the sequences shown.
B1: myc-tagged CCDC6 mutant L217P (protein, UniProt Q16204 1-474)
chain: MADSASESDTDGAGGNSSSSAAMQSSCSSTSGGGGGGGGGGGGGKSGGIVISPFRLEELTNRLASLQQENKVLKIELETYKLKCKALQEENRDLRKASVTIQARAEQEEEFISNTLFKKIQALQKEKETLAVNYEKEEEFLTNELSRKLMQLQHEKAELEQHLEQEQEFQVNKLMKKIKKLENDTISKQLTLEQLRREKIDLENTLEQEQEALVNRPWKRMDKLEAEKRILQEKLDQPVSAPPSPRDISMEIDSPENMMRHIRFLKNEVERLKKQLRAAQLQHSEKMAQYLEEERHMREENLRLQRKLQREMERREALCRQLSESESSLEMDDERYFNEMSAQGLRPRTVSSPIPYTPSPSSSRPISPGLSYASHTVGFTPPTSLTRAGMSYYNSPGLHVQHMGTSHGITRPSPRRSNSPDKFKRPTPPPSPNTQTPVQPPPPPPPPPMQPTVPSAATSQPTPSQHSAHPSSQP
B2: myc-tagged CCDC6 mutant A226S (protein, UniProt Q16204 1-474)
chain: B1 chain with P217L, A226S
B3: myc-tagged CCDC6 mutant P442S (protein, UniProt Q16204 1-474)
chain: B1 chain with P217L, P442S

molecular target: T1, GFP-S-tag-CCDC6 (WT) (UniProt Q16204); assay: pull-down; S-tag pull-down with S-protein agarose resin from HeLa-Kyoto GFP-S-tag-CCDC6 cells (and HeLa-Kyoto control cells) transfected with myc-tagged CCDC6 mutants or empty vector; isolated proteins immunoblotted with anti-myc and anti-GFP
T1 sequence: B1 chain with P217L

Row | Binder | binding
1 | B1 | binds
2 | B2 | binds
3 | B3 | binds
